Measurements: PubChem BioAssay AID504834 (National Center for Advancing Translational Sciences (NCATS), 2011)
About 22,000 (6.9%) of roughly 320,000 compounds were called active. Inconclusive results, whose numbers are uncertain, are shown with a selection of clear calls. Calls come from the whole dose curve; as a rule, active = well fitted inhibition curve with a large enough effect; inconclusive = small, poorly fitted or top-dose-only effect, or another doubt; inactive = no such curve, though single readings can be large or run the other way. Potencies of inconclusive entries are doubtful fits and often do not repeat.

Assay: Primary qHTS for delayed death inhibitors of the malarial parasite plastid, 96 hour incubation
Conditions: P. falciparum luciferase reporter growth; series mostly up to 28.7 µM
How it was run: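 Luminescence readout: decreased luciferase signal marks inhibited growth of reporter-expressing P. falciparum in infected red cells (2% hematocrit, 0.05% parasitemia final), exposed to compound two generations (96 h, 37 C, 5% CO2).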
% is set by controls: 0 for no effect and ±100 for the full control effect; potency is the fitted concentration of half-maximal effect.

**Q.** For O=C(NCC(c1cccnc1)N1CCN(c2ccc(F)cc2)CC1)c1ccc(F)cc1 (stereo not drawn), which Potency is on record?
**A.** Its Potency is “inactive”.

**Q.** For COc1cccc(-c2nnc(NC(=O)CCS(=O)(=O)c3ccc(C)cc3)o2)c1, which Potency is on record?
**A.** The Potency was inconclusive: 7.38 µM [inhibitor, partial curve].

**Q.** With Cc1nc2ccc(NC(=O)COc3cccc(F)c3)cc2s1 as the compound, how does the Potency read?
**A.** Its Potency is “inactive”.

**Q.** Which Potency does the source give for COc1cc(/C=N/Nc2ccc3ccccc3c2)ccc1OC(=O)c1ccco1 here?
**A.** Its Potency is inconclusive: 18.5 µM [inhibitor, single point].

**Q.** With COc1ccc(CCN(Cc2cc3cc(C)cc(C)c3nc2Cl)C(=O)C2CC2)cc1 as the compound, how does the Potency read?
**A.** Its Potency is inconclusive: 5.22 µM [inhibitor, partial curve, poor fit].

**Q.** For NC(=O)c1ccccc1N1CCCCC1, which Potency is on record?
**A.** Its Potency is “inactive”.

**Q.** Which Potency does the source give for Cc1cc(NC(=O)CSc2nnc(-c3cccnc3)n2C2CCCCC2C)no1 (stereo not drawn) here?
**A.** Its Potency is inconclusive: 18.5 µM [inhibitor, single point].

**Q.** Which Potency does the source give for Cc1cccc(NC(=S)NNC(=O)c2nn(C)cc2Cl)c1 here?
**A.** Its Potency is “inactive”.

**Q.** With Cc1cc(=O)n2[nH]c(-c3ccccc3Cl)cc2n1 as the compound, how does the Potency read?
**A.** Its Potency is active: 7.38 µM.

**Q.** Which Potency does the source give for CC(C)(CN1CCOCC1)NS(=O)(=O)c1ccccc1 here?
**A.** The Potency was inconclusive: 18.5 µM [inhibitor, single point].

**Q.** For CC1=NN(Cc2ccccc2)C(=O)C1C(c1ccccc1)C(C#N)C#N (stereo not drawn), which Potency is on record?
**A.** Its Potency is “inactive”.

**Q.** Which Potency does the source give for O=C(CCCN1C(=O)C2CCCCN2C1=O)N1CCN(c2ccc([N+](=O)[O-])cc2)CC1 (stereo not drawn) here?
**A.** The Potency was inconclusive: 8.28 µM [inhibitor, single point].

**Q.** For COc1ccc(Oc2ccc(N/C=C/C(=O)C(C)(C)C)cc2)cc1, which activity change, negative = inhibition is on record?
**A.** Its activity change, negative = inhibition is inactive: -34.7% [at 1.15 µM].

**Q.** Which Potency does the source give for CC(C)c1cccc(C(C)C)c1NC(=O)COC(=O)[C@H](C)NC(N)=O here?
**A.** The Potency was inconclusive: 18.5 µM [inhibitor, single point].

**Q.** Which Potency does the source give for O=S(=O)(ON(c1ccccc1)S(=O)(=O)c1ccccc1)c1ccccc1 here?
**A.** Its Potency is inconclusive: 16.5 µM [inhibitor, single point].

**Q.** For O=c1nc2n(c3ccc([N+](=O)[O-])cc13)CCCCC2, which Potency is on record?
**A.** The Potency was inconclusive: 3.29 µM [inhibitor, single point].

**Q.** Which Potency does the source give for CCN(CC(=O)Nc1cc(Cl)ccc1C)C(=O)c1oc2ccc(OC)cc2c1C here?
**A.** Its Potency is inconclusive: 18.5 µM [inhibitor, single point].

**Q.** Which Potency does the source give for O=C(Nc1ccc2c(c1)OCO2)C1CCCN1C(=O)Nc1ccccc1F (stereo not drawn) here?
**A.** Its Potency is inconclusive: 4.65 µM [inhibitor, partial curve, poor fit].

**Q.** With CCn1c(=N)n(CC(=O)c2cccc([N+](=O)[O-])c2)c2ccccc21 as the compound, how does the Potency read?
**A.** The Potency was “inactive”.

**Q.** For COC(=O)[C@@]1(Cc2ccc(F)cc2)[C@H]2c3cc(C(=O)N4CCCC4)n(CCCNc4ncc(C(F)(F)F)cc4Cl)c3C[C@H]2CN1C(=O)c1ccccc1, which Potency is on record?
**A.** The Potency was inconclusive: 0.657 µM [inhibitor, full curve].

**Q.** For Cc1cc(=O)oc2cc(OCC(=O)N3CCN(Cc4ccc5c(c4)OCO5)CC3)ccc12, which Potency is on record?
**A.** Its Potency is inconclusive: 18.5 µM [inhibitor, single point].

**Q.** For COc1ccc(-c2cc3ccccc3n2CC(O)CN2CCN(CCO)CC2)cc1 (stereo not drawn), which Potency is on record?
**A.** Its Potency is inconclusive: 4.65 µM [inhibitor, partial curve].

**Q.** Which Potency does the source give for O=C(c1cccs1)N(CCO)Cc1cc2cc3c(cc2[nH]c1=O)OCCO3 here?
**A.** The Potency was inconclusive: 3.7 µM [inhibitor, partial curve, poor fit].

**Q.** Which Potency does the source give for C=CCn1c(SCC(=O)NC2CCCC2)nnc1-c1ccncc1 here?
**A.** The Potency was inconclusive: 2.08 µM [inhibitor, partial curve, poor fit].

**Q.** With C/C(=N\NC(=O)c1ccccc1F)c1cccc(NC(=O)c2ccc(C)cc2)c1 as the compound, how does the Potency read?
**A.** The Potency was active: 5.22 µM.

**Q.** With Cc1cc(NC(=O)c2cc(-c3ccco3)on2)no1 as the compound, how does the Potency read?
**A.** Its Potency is “inactive”.

**Q.** For COc1ccc(-n2c(SCC(=O)N3CCCC3)nc3ccccc3c2=O)cc1, which Potency is on record?
**A.** Its Potency is “inactive”.

**Q.** For CN(Cc1c(F)cccc1Cl)C(=O)c1ccc(NC(=O)CC2SC(N3CCCC3)=NC2=O)cc1 (stereo not drawn), which Potency is on record?
**A.** Its Potency is inconclusive: 8.28 µM [inhibitor, partial curve, poor fit].

**Q.** Which Potency does the source give for CCn1cc(C(=O)NCCC(C)C)c(=O)c2cc(S(=O)(=O)N3CCCCC3)ccc21 here?
**A.** Its Potency is inconclusive: 13.1 µM [inhibitor, single point].

**Q.** For CCCC(C)NC(=O)c1sc2nc3n(c(=O)c2c1C)CCC3 (stereo not drawn), which activity change, negative = inhibition is on record?
**A.** The activity change, negative = inhibition was inactive: 58.8% [at 5.75 µM].

**Q.** For Cc1ccc(C(=O)N2CC(C)CC(C)C2)cc1S(=O)(=O)N1CCCCC1 (stereo not drawn), which Potency is on record?
**A.** The Potency was inconclusive: 4.65 µM [inhibitor, partial curve, poor fit].

**Q.** For CC1CCCC(C)N1CCCNC(=O)c1ccc2nc(N3CCCCC3)sc2c1 (stereo not drawn), which Potency is on record?
**A.** Its Potency is inconclusive: 18.5 µM [inhibitor, single point].

**Q.** With Cc1ccc(NC(=O)c2c(C)nn(-c3ccccc3)c2Cl)cc1 as the compound, how does the Potency read?
**A.** Its Potency is inconclusive: 2.08 µM [inhibitor, single point].

**Q.** With CC(OC(=O)c1ccco1)C(=O)NC1CCCCC1 (stereo not drawn) as the compound, how does the Potency read?
**A.** The Potency was inconclusive: 13.1 µM [inhibitor, single point].

**Q.** For O=C(Nc1ccc(S(=O)(=O)Nc2nccs2)cc1)C1=NN(c2ccccc2)C(=O)CC1, which Potency is on record?
**A.** Its Potency is inconclusive: 1.47 µM [inhibitor, partial curve, poor fit].

**Q.** Which Potency does the source give for O=C(Nc1ccccc1Cl)c1sccc1-c1ccccc1 here?
**A.** Its Potency is inconclusive: 16.5 µM [inhibitor, single point].

**Q.** Which Potency does the source give for O=C(Nc1nc(-c2ccc(F)c(F)c2)cs1)C1=COCCO1 here?
**A.** The Potency was “inactive”.

**Q.** Which Potency does the source give for CCOc1ccc(NC(=O)COc2ccc(C(=O)NCC3CCCO3)cc2OC)cc1 (stereo not drawn) here?
**A.** Its Potency is inconclusive: 8.28 µM [inhibitor, partial curve, poor fit].

**Q.** For CCCCCCCCCC(=O)NNC(=O)c1c(O)c2ccccc2n(CC)c1=O, which Potency is on record?
**A.** Its Potency is “inactive”.

**Q.** For CC12CC3CC(C)(C1)CC(C(=O)NCc1ccncc1)(C3)C2, which Potency is on record?
**A.** Its Potency is “inactive”.

**Q.** With CSc1ccccc1NC(=O)CN1c2ccccc2CC1C (stereo not drawn) as the compound, how does the Potency read?
**A.** The Potency was inconclusive: 13.1 µM [inhibitor, single point].

**Q.** With Cc1csc(NC(=O)C(CC(C)C)NS(=O)(=O)c2ccc3c(c2)oc(=O)n3C)n1 (stereo not drawn) as the compound, how does the Potency read?
**A.** The Potency was inconclusive: 10.4 µM [inhibitor, single point].

**Q.** For c1ccc(Cc2cc[n+](Cc3ccccn3)cc2)cc1, which Potency is on record?
**A.** Its Potency is active: 1.04 µM.
